Results from PubChem BioAssay AID1794845 (National Center for Advancing Translational Sciences (NCATS), 2023).
Screen size: about 6,900 compounds; fewer than 10 were called active. The call rests on the fitted dose curve; in most records, active means well fitted curve in the direction sought with a large enough effect; inconclusive means small, poorly fitted or top-dose-only effect, or another doubt; inactive means no such curve, though single readings can be large or run the other way. Some of the results follow.

The chains behind the UniProt entries cited, without tags or fusion partners. Where a name states a change or a piece, a line headed by the entry shows the natural chain unless it says otherwise.
UniProt C7C422: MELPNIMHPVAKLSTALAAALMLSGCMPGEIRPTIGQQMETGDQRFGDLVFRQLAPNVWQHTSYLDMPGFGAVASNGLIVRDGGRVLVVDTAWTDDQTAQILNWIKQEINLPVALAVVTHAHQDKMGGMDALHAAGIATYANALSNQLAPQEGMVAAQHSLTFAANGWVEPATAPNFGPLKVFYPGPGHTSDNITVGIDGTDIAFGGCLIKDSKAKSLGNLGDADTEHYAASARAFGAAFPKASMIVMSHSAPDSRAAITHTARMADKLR

These molecules were tested against Metallo-beta-lactamase type 2 (Klebsiella pneumoniae) (UniProt C7C422) (assay: qHTS to identify inhibitors of the New Delhi Metallo-beta-lactamase (NDM): primary screen against the NCATS Gemini Collection). Settings: NDM-1 enzyme, meropenem hydrolysis, absorbance 300 nm; at 38.4 µM (top of the series) unless noted.
Method in brief: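 NDM-1 at 2 nM final in 50 mM HEPES pH 7.0, 1 uM ZnSO4, 0.01% Tween20, preincubated >30 min with compound. Meropenem 50 uM final added; absorbance at 300 nm after 30 min.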
Further: % of control where 0% means no effect.

Activity % (negative = inhibition), inactive:
Cc1cc(C)cc(N2CCC(N)C2=O)c1 (configuration not stated) -0.27%, O=C1CO[C@H]2CN(Cc3ccncc3)C[C@H]2N1Cc1ccc(F)cc1 5.45% [at 57.5 µM], Cn1nc(-c2cccc(F)c2)c(N2CCCC2)c1NC(=O)NCc1ccccc1 15.1%, CC(C)(C)C(=O)N1CCC2(CC1)C(=O)N(CC(=O)Nc1cccc(Cl)c1)CN2c1ccccc1 -3.63%, COc1ccc(-c2cc(-c3cnn(C)c3)cn3cncc23)cn1 4.33% [at 57.5 µM], CN1C(=O)CC(C(=O)O)C12CCN(Cc1nc3ccsc3c(=O)[nH]1)CC2 (configuration not stated) -6.63%, CC(=O)NCC1CN(C(=O)NCc2ccc(OC(F)(F)F)cc2)CC12CCCCC2 (configuration not stated) -1.48%, O=C(O)CC1(CC(=O)N[C@@H]2C=C(C(=O)N[C@H]3CCCNC3=O)C[C@@H](O)[C@@H]2O)CCCC1 8.07%, CC(=O)c1ccc(NC(=O)N2C[C@@H]3C[C@H](C2)c2ccc(NC(=O)c4ccc(F)cc4)c(=O)n2C3)cc1 0.456%, O=C1OCCC1CCC(=O)N1CCc2c(nc(-c3ccccc3)[nH]c2=O)C1 (configuration not stated) 14.7%, CN(C)[C@H]1CCCCN(C(=O)c2cn(CCN3CCNCC3)nn2)C1 3.21%, COc1ccccc1-c1nc2nccc(-c3cc(OC)c(OC)c(OC)c3)n2n1 94.8%, O=C(C1CCC1)N1CCC[C@H]1c1nc(-c2ccc(F)cc2)n[nH]1 2.73%, CCn1cc(CN(C)CC(=O)N2CCCCCC2)ccc1=O 1.34%, Cc1nn(C)c(C)c1CCC(=O)NCCc1ncc(C)n1Cc1ccc(F)cc1 -0.797%, CN(Cc1ccccc1)Cc1nnc(C(=O)N2CCC[C@@H]2c2cccc(F)c2)n1-c1ccccc1 -1.81%, CC(c1n[nH]c(=O)n1CCC(=O)O)n1cccn1 (configuration not stated) 34.6%, O=C(NC1CCCCC1)N1C2CCC1CN(c1ccc(C(F)(F)F)cc1)C2 -1.15%, CCc1ccc(C(=O)N2CCC([C@@H]3CNC[C@H]3CO)CC2)cc1 -2.75%, c1ccc(CCCN2CC[C@H](c3nc4ccccc4s3)C2)cc1 -1.98% [at 57.5 µM], Cc1nc(NC(C)c2nc(-c3cccnc3)no2)c2cccnc2n1 (configuration not stated) 39.6%, O=C(Cn1ccc2ccccc2c1=O)N1CCCOC(Cn2cccn2)C1 (configuration not stated) 10.7%, O=C1CC2CCCC(C1)N2C(=O)c1cc(F)ccc1Br 13.6% [at 57.5 µM], Cc1ccc(-c2ccccc2CN2CCN([S+](=O)([O-])c3cccc(C(F)(F)F)c3)CC2)cc1Cl 7.11%, Cc1nc(-c2cn(C3CCCN(C(=O)C(C)Oc4ccccc4)C3)nn2)no1 (configuration not stated) -0.471%, N#Cc1ccc(O[C@@H]2CCOC[C@H]2NC(=O)CCCn2cncn2)cc1 -1.01%, O=C(c1cc(CC2(NCc3ccccc3F)COC2)no1)N1CCCCC1 2.52% [at 57.5 µM], COc1ccc(OCC(=O)N2CCN(c3cc(-c4ccccc4)[nH]n3)CC2)cc1 2.9%, O=C1CCC(CNS(=O)(=O)c2cccnc2)CCN1Cc1ccccc1 (configuration not stated) -0.459%, CN(CC1CCOC1)S(=O)(=O)Cc1cccc(Cl)c1 (configuration not stated) -0.341%, CS(=O)(=O)N1C[C@@H]2OCC(=O)N(Cc3ccncc3)[C@@H]2C1 3.99% [at 57.5 µM], O=C(NCc1cccnc1)C1CN(S(=O)(=O)C2CC2)CC12CCCCC2 (configuration not stated) 5.03%, O=C(NC1CCCC1)c1ccc2c(c1)n(Cc1cccc(F)c1)c(=O)c1ccnn12 2.87%, O=C(c1n[nH]c2c1CCCC2)N1CCc2nc3cc[nH]n3c(=O)c2C1 19.9%, CC1CCN([C@@H]2[C@H](O)[C@H](CO)O[C@@H]2CN(Cc2ccc(F)cc2)Cc2ccc(F)cc2)CC1 -1.03%, Cn1c(C(=O)Nc2ccc3c(c2)OCO3)cc2c1CCN(Cc1cccc(F)c1)C2 36.9%, COc1ccc(NC(=O)[C@@H]2C[C@H](c3ccc(F)cc3)N(Cc3ccccc3Cl)C2)cn1 6.46% [at 57.5 µM], COc1ccccc1C(=O)N1CCCN(c2nnc3ccccn23)CC1 62.8%, O=C1CCN(C(=O)Cc2cccc(F)c2)CCCCCCN1 0.481%, COCc1cccc(C(=O)N2CC[C@@]3(O)CCN(S(C)(=O)=O)C[C@H]3C2)n1 -0.329%, COc1ccc([C@H]2C[C@@H](O)[C@@H](O)[C@@H]2NCc2ccc(OC)nc2)cc1 -1.63% [at 57.5 µM], O=C1CN(C(=O)c2cccc(C(F)(F)F)c2)CC(OCc2cccnc2)CN1CC1CCOCC1 (configuration not stated) 3.12%, CCC(=O)N(C1CCOCC1)C1CCN(Cc2ccc[nH]2)CC1 -1.23%, COc1ccc(C(=O)C2CCCN(Cc3csc(C(C)=O)c3)C2)c(OC)c1 (configuration not stated) 9.05%, Cc1nnc2ccc(N3CCN(C(=O)c4ccncc4)CC3)nn12 0.974% [at 57.5 µM], COCC(=O)Nc1ccc([C@H]2OCC(=O)N[C@@H]2CO)cc1 20.5% [at 57.5 µM], Cc1ccc(O[C@H]2COCC[C@H]2NC(=O)c2ccc(-c3ccn[nH]3)cc2)cn1 2.68%, CCS(=O)(=O)Nc1ccc(C2(C(=O)NCc3cccc(Cl)c3)CCC2)cc1 4.34%, C=CCCCC(=O)Nc1ccc(NC(=O)C(C)(C)C)c(OC)c1 7.52%, CCC(C)N1Cc2cc(NC(=O)c3ccc([N+](=O)[O-])cc3)ccc2OCC1=O (configuration not stated) 15%, CN(C)c1cccc(-c2nc(-c3nnn4c3COC(c3ccccc3Cl)C4)no2)c1 (configuration not stated) -2.21%, O=S(=O)(N[C@H]1CO[C@H]2[C@@H]1OC[C@@H]2n1nnnc1Oc1cccc(N2CCOCC2)c1)c1cccs1 0.144%, COCCOC1CCOC2(CCN(C(=O)CCCc3ccccc3)CC2)C1 (configuration not stated) -0.361%, O=C(Cc1ccsc1)N1CCC2(CC1)N=C(c1ccccc1)NO2 5.75%, C[S+](=O)([O-])NCCNC(=O)c1cccc(-c2ccsc2)c1 4.94% [at 57.5 µM], COC(=O)[C@@H]1Cc2ncn(Cc3ccc(Cl)cc3)c2CN1S(=O)(=O)c1cccs1 33.4%, COc1ccc(CN2CCc3ncc(C(=O)NCc4ccc5c(c4)OCO5)n3CC2)cn1 2.05% [at 57.5 µM], O=S(=O)(c1cccnc1)N1CCC(N(Cc2cccnc2)C2CCOCC2)CC1 5.87%, CCCNC(=O)N(C1CCOCC1)C1CCN(C(=O)CCC(=O)c2ccc(F)cc2)CC1 6.77%, O=C(CCC[C@@H]1[C@H]2CCCN3CCC[C@@H](CN1C(=O)c1ccccc1F)[C@@H]23)N1CCOCC1 -1.64%, O=C(NCc1ccc(Cl)cc1)C1CC(=O)N(c2n[nH]c3cccc(F)c23)C1 (configuration not stated) -0.524%, Cc1ccc(NC(=O)N2CCC(n3c(C)cnc3-c3cccnc3)C2)cc1C (configuration not stated) 6.82%, O=C1NC[C@@H](CCC(=O)N2CCc3ccccc32)N2C[C@@H](NS(=O)(=O)c3ccccc3)C[C@@H]12 0.275%, Cc1cc(C)c(CNC(=O)c2cc(-c3cnn(C)c3C)cc3c2OCCN3C)c(=O)[nH]1 15.4% [at 57.5 µM], CC(=O)NC1CC2(CCN(C(=O)C3CCN(C)CC3)CC2)c2ccccc21 (configuration not stated) 2.68%, O=C(C1CCCC1)N1CC2(CCN(Cc3ccccn3)C2)OCc2ccccc21 (configuration not stated) -3.83%, COCC1CN(C)CC12CCN(Cc1ccc(Br)o1)CC2 (configuration not stated) 4.1%, COC(=O)[C@@H]1Cc2ncn(Cc3ccc(Cl)cc3)c2CN1Cc1cccnc1 3.48% [at 57.5 µM], Cc1noc(C)c1-c1cc2c(cc(C)n2C)c(N2CCN(c3ccccn3)CC2)n1 7.74% [at 57.5 µM], Cc1noc(C)c1[S+](=O)([O-])N1CCC2(CC1)Cc1ccccc1NC2=O 12%, CCCC1(CO)CCCN(Cc2cnn(-c3cccc(F)c3)c2)C1 (configuration not stated) -1.05%, CC(C)NC(=O)c1ccccc1OCC1CCCN(Cc2ccncc2F)C1 (configuration not stated) -9.41%, Cn1nc(C2CC2)cc1NC(=O)C(C)(C)C 3.86% [at 57.5 µM], Cc1noc2c(NC3CCOCC3)cc(-c3ccsc3)nc12 33.1% [at 57.5 µM], O=C(NCc1ccco1)Nc1cccc(-c2ccc(N3CCCC3)nn2)c1 28.6%, COc1ccc(NC(=O)N2CCc3c(nc4cc(-c5ccccc5)[nH]n4c3=O)C2)c(OC)c1 -3.62%, CC(=O)N1CCN(c2cc(-c3noc([C@@H]4CCCN4Cc4ccccc4)n3)ccn2)CC1 3.97% [at 57.5 µM], Cc1ccc(C(=O)N2CCCCCNC(=O)[C@@H]3CCC[C@@H]32)s1 8.13%, CCN1CCCCC12Cc1ccccc1CN(S(=O)(=O)c1ccccc1)C2 (configuration not stated) -0.392%, COc1ccccc1-c1ccnc(N[C@H]2CO[C@H]3[C@@H]2OC[C@@H]3NS(=O)(=O)c2cccs2)n1 9.02%, CC(=O)NCc1cn[nH]c1-c1ccc(Cl)cc1 -1.99%, O=C(c1n[nH]c2ccccc12)N1CCC2(CC1)N(c1ccccc1)C(=O)CS2=O (configuration not stated) 5.32%
